Patent publication US7875585 (dated 2011)
These are yes or no findings as the source states them, for the method shown. Binding can be weak; no strength is given.

Amino acid sequences for entries named in this document (tags omitted). A change or cut given only in a name is not applied to a line headed by its entry.
UniProt P16070: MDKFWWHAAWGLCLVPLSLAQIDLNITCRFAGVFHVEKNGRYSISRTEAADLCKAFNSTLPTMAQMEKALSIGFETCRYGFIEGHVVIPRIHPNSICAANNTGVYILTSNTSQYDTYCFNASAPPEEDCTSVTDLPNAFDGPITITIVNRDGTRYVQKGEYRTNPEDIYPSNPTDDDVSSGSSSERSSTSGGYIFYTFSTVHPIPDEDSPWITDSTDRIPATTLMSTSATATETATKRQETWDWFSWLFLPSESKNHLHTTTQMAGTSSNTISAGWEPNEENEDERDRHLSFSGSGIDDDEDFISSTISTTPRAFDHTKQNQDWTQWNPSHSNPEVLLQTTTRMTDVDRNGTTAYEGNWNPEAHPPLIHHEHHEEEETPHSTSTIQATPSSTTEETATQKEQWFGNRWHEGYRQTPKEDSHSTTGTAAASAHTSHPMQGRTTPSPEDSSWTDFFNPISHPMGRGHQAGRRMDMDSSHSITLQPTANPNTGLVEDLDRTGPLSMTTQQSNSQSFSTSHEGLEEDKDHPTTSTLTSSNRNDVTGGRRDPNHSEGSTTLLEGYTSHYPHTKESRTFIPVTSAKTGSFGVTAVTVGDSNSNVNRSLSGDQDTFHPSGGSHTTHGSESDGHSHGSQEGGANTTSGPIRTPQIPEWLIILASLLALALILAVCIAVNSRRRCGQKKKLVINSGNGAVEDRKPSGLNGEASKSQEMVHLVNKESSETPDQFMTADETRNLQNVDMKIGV

Target: T1, human E-selectin on CHO-E cells (human, UniProt P16581 22-610)
T1 construct: whole, on cells; also called CD62E
T1 sequence (looked up): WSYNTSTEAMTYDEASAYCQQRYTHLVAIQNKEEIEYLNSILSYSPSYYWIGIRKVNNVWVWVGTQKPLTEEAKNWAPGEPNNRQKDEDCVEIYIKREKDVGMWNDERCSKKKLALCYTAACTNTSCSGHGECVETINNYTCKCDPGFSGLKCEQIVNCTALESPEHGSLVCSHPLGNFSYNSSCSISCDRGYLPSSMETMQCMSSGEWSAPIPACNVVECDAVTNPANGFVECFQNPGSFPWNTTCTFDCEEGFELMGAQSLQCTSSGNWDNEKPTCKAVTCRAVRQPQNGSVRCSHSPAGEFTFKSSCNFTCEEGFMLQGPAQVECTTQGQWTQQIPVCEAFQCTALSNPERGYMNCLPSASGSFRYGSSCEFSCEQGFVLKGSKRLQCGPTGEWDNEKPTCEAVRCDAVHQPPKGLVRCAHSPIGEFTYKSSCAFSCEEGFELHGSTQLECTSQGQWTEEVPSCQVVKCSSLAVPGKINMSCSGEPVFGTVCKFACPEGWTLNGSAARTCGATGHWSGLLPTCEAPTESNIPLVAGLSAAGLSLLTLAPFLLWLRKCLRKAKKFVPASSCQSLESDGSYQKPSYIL
Test: blot rolling assay with CHO-E cells

binding | Substance
no binding | CD44 from the human bone marrow endothelial cell line BMEC-1 (from UniProt P16070) (ligand)
binds | CD44 from blasts of an acute myelogenous leukemia, subtype M5 (from UniProt P16070) (ligand)
